{"sequences": {"note": "The chains behind the UniProt entries cited, without tags or fusion partners. Where a name states a change or a piece, a line headed by the entry shows the natural chain unless it says otherwise.", "UniProt P51450": "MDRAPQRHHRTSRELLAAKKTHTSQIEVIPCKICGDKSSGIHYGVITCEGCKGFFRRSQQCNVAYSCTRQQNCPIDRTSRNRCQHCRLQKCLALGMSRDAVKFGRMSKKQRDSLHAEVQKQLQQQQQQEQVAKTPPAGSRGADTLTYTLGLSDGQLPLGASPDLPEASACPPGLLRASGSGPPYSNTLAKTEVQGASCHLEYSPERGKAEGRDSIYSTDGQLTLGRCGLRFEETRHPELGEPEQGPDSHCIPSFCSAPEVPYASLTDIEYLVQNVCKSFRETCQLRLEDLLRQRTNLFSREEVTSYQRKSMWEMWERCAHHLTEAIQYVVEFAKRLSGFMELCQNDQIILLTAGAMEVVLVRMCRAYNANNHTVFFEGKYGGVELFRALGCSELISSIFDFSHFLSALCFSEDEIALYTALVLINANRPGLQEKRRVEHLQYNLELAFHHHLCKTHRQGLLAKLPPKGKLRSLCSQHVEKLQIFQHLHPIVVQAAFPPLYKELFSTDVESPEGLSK"}, "source": "PubChem BioAssay AID2551", "about": "(National Center for Advancing Translational Sciences (NCATS), 2010)", "note": "Hit rate of the full screen: of about 310,000 compounds, about 17,000 (5.5%) were called active. Inconclusive results, whose numbers are uncertain, are shown with a selection of clear calls. Calls come from the whole dose curve; as a rule, active = well fitted inhibition curve with a large enough effect; inconclusive = small, poorly fitted or top-dose-only effect, or effect the other way; inactive = no such curve, though single readings can be large or run the other way. Where the call is inconclusive, the potency comes from a doubtful curve fit. % is set by controls: 0 for no effect and ±100 for the full control effect; potency is the fitted concentration of half-maximal effect.", "data": [{"biological_target": "Nuclear receptor ROR-gamma (Mus musculus) (UniProt P51450)", "test": "qHTS for inhibitors of ROR gamma transcriptional activity; note: nearly all actives have a fitted effect of over 60% in size", "conditions": "Drosophila S2 Gal4-RORgamma UAS-luciferase reporter, 20 h; activity change, negative = inhibition: at 53.6 µM (top of the series)", "outline": "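Schneider cells (Drosophila), stable Gal4 DBD–ROR gamma + UAS-luc; 1 hr cmpd preincubation; Cu2+ induction 700 uM final; 20 hr ambient; luminescence.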", "values": [{"smiles": "O=C(OC1CCCCC1)c1cc2ccccc2oc1=O", "Potency": "inconclusive: 1.41 µM [inhibitor, partial curve]"}, {"smiles": "CCC(=O)C(C(=O)OC)[C@H](CCc1ccccc1)NC(=O)OC", "note": "(stereo not given in full)", "activity change, negative = inhibition": "inactive: 2.59%"}, {"smiles": "c1cc2c(cn1)cnc1cscc12", "activity change, negative = inhibition": "inactive: 18.4%"}, {"smiles": "CS(=O)(=O)Nc1cccc(-c2cncnc2NCc2ccccc2)c1", "activity change, negative = inhibition": "inactive: -11.2%"}, {"smiles": "O=C(Nc1nnc(-c2cccnc2)o1)c1cccc(Cl)c1", "Potency": "active: 0.501 µM"}, {"smiles": "CCCCN(C(=O)Cn1nnc2ccccc21)C(C(=O)NCCOC)c1ccc(OC)cc1", "note": "(stereo not given)", "activity change, negative = inhibition": "inactive: 39.8%"}, {"smiles": "Cc1ccc(CN2CCN(/N=C/c3ccc(C(=O)O)cc3)CC2)cc1", "activity change, negative = inhibition": "inactive: -0.732%"}, {"smiles": "COc1ccc(N2CCN(C(=O)CCC(=O)N3CC(C)Oc4ccc(C)cc43)CC2)cc1", "note": "(stereo not given)", "Potency": "inconclusive: 0.398 µM [activator, single point]"}, {"smiles": "CCOC(=O)C(C(C)=O)c1c(Br)c(O)c(O)c2c(C(=O)c3ccc(C)cc3)coc12", "note": "(stereo not given)", "Potency": "active: 12.6 µM"}, {"smiles": "N#Cc1ccc(C(=O)Nc2nnc(-c3cccs3)o2)cc1", "Potency": "active: 0.708 µM"}, {"smiles": "Cc1cc(C)c2c(N)c(C(=O)Nc3ncc(C)s3)sc2n1", "Potency": "active: 2 µM"}, {"smiles": "Cc1nc(-c2cccnc2)sc1C(=O)Nc1cccc(C(F)(F)F)c1", "Potency": "inconclusive: 12.6 µM [activator, partial curve]"}, {"smiles": "CCCCn1c(C(C)NC(=O)c2cccs2)nc2ccccc21", "note": "(stereo not given)", "Potency": "inconclusive: 35.5 µM [inhibitor, single point]"}, {"smiles": "O=C(CCNC(=O)c1ccco1)Nc1ccc(F)c(Cl)c1", "activity change, negative = inhibition": "inactive: -1.91%"}, {"smiles": "O=C(Nc1ccc(SC(F)F)cc1)C12CCC(CC1)C2", "Potency": "inconclusive: 12.6 µM [activator, partial curve]"}, {"smiles": "COCCNC(=O)C(c1cccs1)N(Cc1cccs1)C(=O)Cn1nnc2ccccc21", "note": "(stereo not given)", "Potency": "inconclusive: 3.16 µM [activator, single point]"}, {"smiles": "O=C(CCNc1ccc(Cc2ccncc2)cc1)c1cccc([N+](=O)[O-])c1", "Potency": "inconclusive: 35.5 µM [inhibitor, single point]"}, {"smiles": "CCn1cc(C(=O)NCCN(C)CCc2ccccc2)c(=O)c2cc(S(=O)(=O)N(C)C)ccc21", "Potency": "inconclusive: 15.8 µM [inhibitor, single point]"}, {"smiles": "COc1cc2c(cc1OC)C(c1ccccc1Cl)N(C)CC2", "note": "(stereo not given)", "activity change, negative = inhibition": "inactive: -24.8%"}, {"smiles": "S=c1[nH]cnc2scc(-c3ccc(Br)cc3)c12", "Potency": "active: 0.501 µM"}, {"smiles": "CC1CCCCN1S(=O)(=O)c1ccc(S(=O)(=O)N(CC(=O)Nc2ccccc2)Cc2cccs2)cc1", "note": "(stereo not given)", "Potency": "inconclusive: 10 µM [activator, partial curve, poor fit]"}, {"smiles": "Cc1c(Cl)c(-c2n[nH]c(=S)n2-c2ccc(F)cc2)nn1C", "Potency": "active: 12.6 µM"}, {"smiles": "CCOC(=O)C(C)On1c(-n2nc(C)cc2C)nc2ccccc2c1=O", "note": "(stereo not given)", "Potency": "active: 2.51 µM"}, {"smiles": "Cc1cc(/C=C(\\C#N)C(=O)NCc2ccco2)c(C)n1C1CCCC1", "Potency": "inconclusive: 14.1 µM [activator, single point]"}, {"smiles": "CCOc1ccccc1N(C)C(=O)c1ccc2c(=O)n3c(nc2c1)CCCCC3", "activity change, negative = inhibition": "inactive: -3.52%"}, {"smiles": "Cc1cc(CNC(=O)COc2ccc(F)cc2F)c2ccccc2n1", "Potency": "inconclusive: 12.6 µM [activator, partial curve]"}, {"smiles": "COc1cc(CNc2ccc3[nH]c(=O)[nH]c3c2)ccc1OCc1ccc(F)cc1", "Potency": "inconclusive: 0.891 µM [activator, single point]"}, {"smiles": "Cc1ccc(NC2=Nc3ccccc3CS2)cc1", "Potency": "inconclusive: 11.2 µM [inhibitor, single point]"}, {"smiles": "NS(=O)(=O)c1cccc(NC(=O)CCSc2ccccc2Cl)c1", "Potency": "inconclusive: 10 µM [activator, partial curve]"}, {"smiles": "CC1=C(/C=C/C(C)=C/C=C/C(C)=C/C=O)C(C)(C)CCC1", "Potency": "inconclusive: 11.2 µM [inhibitor, single point]"}, {"smiles": "C/C=C/Cn1c(SCCCc2ccccc2)nc2c1c(=O)[nH]c(=O)n2C", "activity change, negative = inhibition": "inactive: 25.4%"}, {"smiles": "CCOC(=O)c1c(NC(=O)/C=C/C(=O)O)sc(C)c1-c1ccc(C)c(C)c1", "Potency": "active: 10 µM"}, {"smiles": "OCCCNc1ncnc2c1cnn2-c1ccc(Cl)cc1", "Potency": "inconclusive: 11.2 µM [inhibitor, single point]"}, {"smiles": "Cc1nccn1CCOc1ccccc1Cl", "Potency": "inconclusive: 1.58 µM [inhibitor, partial curve]"}, {"smiles": "CCN1CCN(c2sc(S(C)(=O)=O)nc2S(=O)(=O)c2ccc(Cl)cc2)CC1", "activity change, negative = inhibition": "inactive: -11.5%"}, {"smiles": "O=C1C2C3c4ccccc4C(c4ccccc43)C2C(=O)N1c1ccncc1", "note": "(stereo not given)", "activity change, negative = inhibition": "inactive: 44.6%"}, {"smiles": "CN(C)C(=O)COc1ccc(C(=O)/C=C/c2cccnc2)cc1", "Potency": "active: 17.8 µM"}, {"smiles": "Fc1ccccc1NC(=S)NNc1ncc(C(F)(F)F)cc1Cl", "Potency": "inconclusive: 22.4 µM [inhibitor, single point]"}, {"smiles": "COc1ccc(NC(=O)c2cccc(N3C(=O)C4C5C=CC(C5)C4C3=O)c2)cc1Cl", "note": "(stereo not given)", "Potency": "inconclusive: 15.8 µM [activator, single point]"}, {"smiles": "CNC(=S)Nc1ccc(OC(F)(F)F)cc1", "Potency": "active: 7.08 µM"}, {"smiles": "CCCCn1c(CCNC(=O)CCC)nc2ccccc21", "Potency": "inconclusive: 5.62 µM [activator, single point]"}, {"smiles": "O=C1c2cccc3c([N+](=O)[O-])ccc(c23)C(=O)N1c1ccc(Cl)cn1", "Potency": "inconclusive: 25.1 µM [inhibitor, single point]"}, {"smiles": "CCc1cc2c(NCc3ccco3)ncnc2s1", "Potency": "inconclusive: 10 µM [activator, partial curve]"}, {"smiles": "Fc1ccc(-c2nnc(-c3ccc(Cl)cc3)o2)cc1", "Potency": "inconclusive: 0.447 µM [activator, full curve, poor fit]"}, {"smiles": "Cc1cc(C(=O)N=Nc2c(O)n(C(C)C)c3ccccc23)n[nH]1", "Potency": "active: 11.2 µM"}, {"smiles": "Cn1cccc1-c1nc2ccc(NC(=O)c3ccco3)cc2[nH]1", "Potency": "inconclusive: 11.2 µM [activator, partial curve]"}, {"smiles": "O=C(c1ccccc1)[C@@H]1[C@@H]2C(=O)N(c3ccc(F)cc3)C(=O)[C@@H]2C2CCCN21", "note": "(stereo not given in full)", "Potency": "inconclusive: 8.91 µM [inhibitor, partial curve, poor fit]"}, {"smiles": "Nc1ccc(-c2nc3ncccc3o2)c(O)c1", "Potency": "inconclusive: 12.6 µM [inhibitor, single point]"}, {"smiles": "O=C(NC(=S)NN1CCCCC1c1cccnc1)c1ccc(Cl)cc1Cl", "note": "(stereo not given)", "Potency": "active: 1.58 µM"}, {"smiles": "CCOC(=O)c1[nH]n(-c2ccc(Cl)cc2)c(=O)c1C", "Potency": "inconclusive: 10 µM [activator, partial curve, poor fit]"}, {"smiles": "COc1ccc(NS(=O)(=O)c2ccc3oc(Nc4ccc5c(c4)OCCO5)nc3c2)cc1", "Potency": "inconclusive: 14.1 µM [activator, single point]"}, {"smiles": "Cc1[nH]c2ccccc2c1CCN(Cc1cccs1)C(=S)Nc1ccccc1", "Potency": "active: 5.62 µM"}, {"smiles": "Cc1nn2c(NCc3ccccn3)cc(C(C)(C)C)nc2c1-c1ccccc1", "Potency": "active: 0.251 µM"}, {"smiles": "Cc1ccc(CNC(=O)C2CCC(CNc3nc(=S)[nH]c4ccccc34)CC2)cc1", "note": "(stereo not given)", "activity change, negative = inhibition": "inactive: -36.5%"}, {"smiles": "Cc1n[nH]c(C)c1S(=O)(=O)N1CCCC(C(=O)NCc2ccccc2Cl)C1", "note": "(stereo not given)", "Potency": "inconclusive: 11.2 µM [activator, partial curve]"}, {"smiles": "CCCc1cc(C(=O)Nc2cc(Br)ccc2O)no1", "Potency": "inconclusive: 7.08 µM [activator, partial curve]"}, {"smiles": "COc1ccc(S(=O)(=O)N2CCOC2CNC(=O)C(=O)NCCCc2ccccc2)cc1", "note": "(stereo not given)", "Potency": "inconclusive: 15.8 µM [activator, single point]"}, {"smiles": "S=c1[nH]nc(-c2ccc(Cl)cc2Cl)n1Cc1ccccc1", "Potency": "active: 2.82 µM"}, {"smiles": "CC(C)(C)N1C(=O)c2ccc(C(=O)NCc3ccco3)cc2C1=O", "Potency": "inconclusive: 35.5 µM [activator, partial curve]"}, {"smiles": "CSc1nc2ccc(N3C(=O)C4CCCCC4C3=O)cc2s1", "note": "(stereo not given)", "Potency": "inconclusive: 11.2 µM [activator, partial curve, poor fit]"}, {"smiles": "CCOC(=O)c1c(NC(=O)CSc2nc3ccccc3c(=O)n2-c2ccccc2)sc(C(C)=O)c1C", "activity change, negative = inhibition": "inactive: 0.526%"}, {"smiles": "O=C1c2ccccc2C(=O)N1CCCCN(C(=O)c1cc2ccccc2oc1=O)c1ccc(Cl)cc1", "Potency": "inconclusive: 8.91 µM [activator, partial curve]"}, {"smiles": "CCOC(=O)c1c(NC(=S)Nc2ccccc2)sc(C)c1C", "Potency": "active: 3.55 µM"}, {"smiles": "CC1CCN(C(=O)CNC(=O)CNS(=O)(=O)c2ccccc2)CC1", "activity change, negative = inhibition": "inactive: -1.1%"}, {"smiles": "Cc1cc(C)cc(-n2ccnc2SCC(=O)Nc2ccc3c(c2)OCCO3)c1", "activity change, negative = inhibition": "inactive: -1.18%"}, {"smiles": "CCN(CC)c1ccc(C(=O)c2ccccc2C(=O)O)c(O)c1", "Potency": "inconclusive: 12.6 µM [activator, partial curve]"}, {"smiles": "CCCCNC(=S)NCc1ccc2[nH]c(C)cc2c1", "Potency": "active: 10 µM"}, {"smiles": "Cc1cccc(NC(=O)c2c(O)c3cccc4c3n(c2=O)CCC4)n1", "Potency": "inconclusive: 3.16 µM [inhibitor, partial curve, poor fit]"}, {"smiles": "Cc1nonc1CC(=O)N1CCc2c([nH]c3ccccc23)C1c1ccccc1F", "note": "(stereo not given)", "activity change, negative = inhibition": "inactive: -24.9%"}, {"smiles": "O=C(O)CSc1nnc(-c2ccc(Cl)cc2Cl)n1-c1ccc(Cl)cc1", "Potency": "inconclusive: 17.8 µM [inhibitor, single point]"}, {"smiles": "Cc1nc(-c2c(-c3ccc(O)cc3O)noc2C(F)(F)F)cs1", "activity change, negative = inhibition": "inactive: -9.83%"}, {"smiles": "CCc1nnc(NC(=O)C2Cc3ccccc3CN2S(=O)(=O)c2cccs2)s1", "note": "(stereo not given)", "activity change, negative = inhibition": "inactive: -19.2% [at 0.365 µM]"}, {"smiles": "CSc1ncccc1C(=O)Nc1nc2ccc(F)cc2s1", "Potency": "inconclusive: 11.2 µM [inhibitor, partial curve]"}, {"smiles": "Cc1ccc(C2CC(c3cccc(C)c3)n3ncnc3N2)cc1", "note": "(stereo not given)", "Potency": "inconclusive: 35.5 µM [inhibitor, single point]"}, {"smiles": "CC(C)(C)C(=O)Nc1cc2nn(-c3ccccc3)nc2cc1Cl", "Potency": "active: 0.631 µM"}]}]}
